Earlier results in patent publication US20230201168A1, “NEW THERAPY FOR THE TREATMENT OF TUMORS” (Università degli Studi di Trento, priority 2020, published 2023).
At least one structure is not confirmed: it was looked up by name or label, or the drawing left a doubt.

Test system: Glioblastoma multiforme
Settings: newly diagnosed GBM; increased from 12.1; cited from earlier work

In the case of `Cn1nnc2c(C(N)=O)ncn2c1=O` [TMZ, temozolomide], the median patient survival is listed as 14.6 months.
